The source of these data is publication PMC9735550.

Protein sequences, listed by entry. Tags and fused reporters are not part of them. Lines headed by an entry give the natural chain unless they say otherwise; changes in a name come on top. Chains listed by the source or under a name are the forms on record and can include a tag or linker.
UniProt Q9C035: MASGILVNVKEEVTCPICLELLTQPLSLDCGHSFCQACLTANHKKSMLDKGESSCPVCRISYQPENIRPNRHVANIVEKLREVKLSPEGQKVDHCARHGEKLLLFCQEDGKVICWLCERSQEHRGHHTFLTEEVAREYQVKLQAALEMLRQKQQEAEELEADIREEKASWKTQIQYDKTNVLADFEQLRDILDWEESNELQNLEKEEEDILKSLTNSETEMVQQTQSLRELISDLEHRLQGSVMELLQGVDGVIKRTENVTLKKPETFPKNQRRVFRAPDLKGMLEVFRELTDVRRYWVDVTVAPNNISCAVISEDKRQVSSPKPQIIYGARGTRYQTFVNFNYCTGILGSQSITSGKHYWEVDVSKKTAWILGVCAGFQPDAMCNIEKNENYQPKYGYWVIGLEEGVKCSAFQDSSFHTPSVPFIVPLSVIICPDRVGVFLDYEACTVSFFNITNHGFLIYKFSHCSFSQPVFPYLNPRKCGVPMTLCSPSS
GFP-TRIM5α-mSP2 (Q9C035, form named): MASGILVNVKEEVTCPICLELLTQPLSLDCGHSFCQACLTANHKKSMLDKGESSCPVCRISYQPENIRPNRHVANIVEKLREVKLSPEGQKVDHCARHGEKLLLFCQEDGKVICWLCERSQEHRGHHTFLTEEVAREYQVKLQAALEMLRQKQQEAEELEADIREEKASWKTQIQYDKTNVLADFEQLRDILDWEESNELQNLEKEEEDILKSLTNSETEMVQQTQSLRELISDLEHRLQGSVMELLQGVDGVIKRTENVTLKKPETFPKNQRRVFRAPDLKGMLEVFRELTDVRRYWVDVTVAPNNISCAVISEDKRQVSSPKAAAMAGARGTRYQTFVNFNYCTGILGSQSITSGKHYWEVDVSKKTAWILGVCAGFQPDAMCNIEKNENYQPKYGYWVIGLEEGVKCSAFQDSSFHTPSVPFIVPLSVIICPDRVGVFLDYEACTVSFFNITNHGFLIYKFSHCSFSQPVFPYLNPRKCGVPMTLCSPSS
GFP-TRIM5α-mSP1 (Q9C035, form named): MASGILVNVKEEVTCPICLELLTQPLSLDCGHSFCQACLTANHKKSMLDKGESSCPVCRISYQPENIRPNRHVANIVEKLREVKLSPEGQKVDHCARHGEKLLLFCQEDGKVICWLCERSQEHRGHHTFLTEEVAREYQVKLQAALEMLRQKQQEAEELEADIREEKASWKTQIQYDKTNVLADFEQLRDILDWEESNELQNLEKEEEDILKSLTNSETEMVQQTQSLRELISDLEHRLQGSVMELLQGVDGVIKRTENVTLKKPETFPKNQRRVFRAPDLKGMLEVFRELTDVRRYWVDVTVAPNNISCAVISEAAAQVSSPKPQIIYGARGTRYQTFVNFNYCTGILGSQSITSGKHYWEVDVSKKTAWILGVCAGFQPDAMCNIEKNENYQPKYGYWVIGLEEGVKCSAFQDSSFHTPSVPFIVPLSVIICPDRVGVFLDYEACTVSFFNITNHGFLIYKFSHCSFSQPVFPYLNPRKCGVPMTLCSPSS
UniProt Q14457: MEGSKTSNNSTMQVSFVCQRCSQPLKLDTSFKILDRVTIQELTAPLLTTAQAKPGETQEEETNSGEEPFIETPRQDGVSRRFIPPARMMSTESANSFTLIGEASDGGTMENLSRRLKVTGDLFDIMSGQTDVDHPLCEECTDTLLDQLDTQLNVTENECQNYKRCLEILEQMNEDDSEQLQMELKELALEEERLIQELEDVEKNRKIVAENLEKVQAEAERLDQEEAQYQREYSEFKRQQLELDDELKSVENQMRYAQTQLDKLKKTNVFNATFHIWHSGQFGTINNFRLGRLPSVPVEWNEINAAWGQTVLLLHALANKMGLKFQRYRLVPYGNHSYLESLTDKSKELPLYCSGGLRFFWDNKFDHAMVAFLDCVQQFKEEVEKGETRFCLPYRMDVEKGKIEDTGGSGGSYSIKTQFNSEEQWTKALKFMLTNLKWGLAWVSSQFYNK
UniProt P03187: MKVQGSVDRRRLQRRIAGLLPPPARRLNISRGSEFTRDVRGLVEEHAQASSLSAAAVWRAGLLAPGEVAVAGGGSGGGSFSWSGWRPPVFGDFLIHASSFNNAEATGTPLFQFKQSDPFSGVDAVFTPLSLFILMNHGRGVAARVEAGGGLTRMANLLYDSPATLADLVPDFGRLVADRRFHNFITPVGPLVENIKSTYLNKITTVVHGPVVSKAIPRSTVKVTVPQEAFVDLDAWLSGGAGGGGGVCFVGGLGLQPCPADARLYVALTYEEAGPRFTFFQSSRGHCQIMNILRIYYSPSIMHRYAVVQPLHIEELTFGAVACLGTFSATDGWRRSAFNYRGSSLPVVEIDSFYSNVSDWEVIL

No constants are given. Whether binding was seen depends on the method and setting. Binding seen in cells or lysates may run through a third protein. Some binding calls cover weakened binding; strength is not graded here.

For one assay, the target named is GST-TRIM5α (UniProt Q9C035). The experiment in a line: pull-down; GST or GST fusion from E. coli BL21(DE3) bound to Glutathione Sepharose 4B beads and washed; mixed with E. coli lysate holding the His-tagged protein, 4 °C, 1 h; washed with 0.3% IGEPAL in PBS three times; immunoblot with anti-His; only the target purified. (In western blotting, separated proteins are transferred to a membrane and probed.)

The target of assay [1] is GST-p62 (human (cDNA from MCF7 cells)) (UniProt Q13501). The assay is described as above.
Assay [2] concerns the target GST-BECN1 (human (cDNA from MCF7 cells)) (UniProt Q14457). Described as above.
In assay [3] the target is Flag-BORF1 (Epstein-Barr virus) (UniProt P03187). The assay is described as follows: co-IP; HEK293T cells cotransfected, lysed 24 h later in mRIPA buffer (50 mM Tris-HCl pH 7.8, 150 mM NaCl, 5 mM EDTA, 0.5% Triton X-100, 0.5% IGEPAL); anti-Flag M2 beads, 4 °C, 1 h; immunoblot with anti-HA or anti-GFP.
The target in the next assay is Flag-TRIM5α (UniProt Q9C035). The description is as above.

With His-BORF1 (from UniProt P03187 1-364), the binding entry (with GST-TRIM5α; in assay [1]; in assay [2]) was “binds” each time.

With GFP-TRIM5α (from UniProt Q9C035 1-493), in assay [3], the binding entry is “binds”. As for “GFP-TRIM5α-mSP2 (from UniProt Q9C035 1-493)”, the binding result in assay [3] was “binds”. “GFP-TRIM5α-mSP1 (from UniProt Q9C035 1-493)”: the binding result in assay [3] was “binds”. With HA-BORF1 (from UniProt P03187 1-364), in the assay with Flag-TRIM5α, the binding entry is “binds”.
